Measured values taken from patent US20050238685A1, “Method of binding a compound to a surface” (priority 2002, published 2005).
No constants are given. Whether binding was seen depends on the method and setting. Some binding calls cover weakened binding; strength is not graded here.

Chains of the proteins cited; added tags and fusions are not shown. Residues count along the entry.
UniProt P13006, residues 23-605: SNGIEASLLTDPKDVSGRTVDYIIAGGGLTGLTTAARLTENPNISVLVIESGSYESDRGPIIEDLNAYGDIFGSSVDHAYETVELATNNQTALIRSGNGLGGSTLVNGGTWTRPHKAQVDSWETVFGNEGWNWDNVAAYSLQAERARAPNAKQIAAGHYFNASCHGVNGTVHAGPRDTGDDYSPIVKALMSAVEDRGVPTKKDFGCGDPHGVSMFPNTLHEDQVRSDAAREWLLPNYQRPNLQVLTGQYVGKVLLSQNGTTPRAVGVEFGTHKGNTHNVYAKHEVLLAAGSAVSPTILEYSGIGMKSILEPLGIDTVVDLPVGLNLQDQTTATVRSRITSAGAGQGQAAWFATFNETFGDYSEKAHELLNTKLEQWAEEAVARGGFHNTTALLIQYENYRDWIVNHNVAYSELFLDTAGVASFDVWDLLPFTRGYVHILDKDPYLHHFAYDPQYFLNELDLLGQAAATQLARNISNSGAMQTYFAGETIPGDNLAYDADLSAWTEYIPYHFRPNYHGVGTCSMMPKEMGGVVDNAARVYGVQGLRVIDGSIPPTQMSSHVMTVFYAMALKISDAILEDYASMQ
UniProt P00433, residues 31-338: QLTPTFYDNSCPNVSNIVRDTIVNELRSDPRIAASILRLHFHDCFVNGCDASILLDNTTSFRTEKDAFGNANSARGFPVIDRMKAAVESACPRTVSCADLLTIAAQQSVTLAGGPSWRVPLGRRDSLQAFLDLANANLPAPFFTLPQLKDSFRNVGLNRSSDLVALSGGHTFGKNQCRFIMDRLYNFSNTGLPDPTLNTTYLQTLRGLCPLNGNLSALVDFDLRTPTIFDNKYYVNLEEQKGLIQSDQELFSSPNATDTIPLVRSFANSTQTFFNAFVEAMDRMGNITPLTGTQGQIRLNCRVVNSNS
UniProt P08659: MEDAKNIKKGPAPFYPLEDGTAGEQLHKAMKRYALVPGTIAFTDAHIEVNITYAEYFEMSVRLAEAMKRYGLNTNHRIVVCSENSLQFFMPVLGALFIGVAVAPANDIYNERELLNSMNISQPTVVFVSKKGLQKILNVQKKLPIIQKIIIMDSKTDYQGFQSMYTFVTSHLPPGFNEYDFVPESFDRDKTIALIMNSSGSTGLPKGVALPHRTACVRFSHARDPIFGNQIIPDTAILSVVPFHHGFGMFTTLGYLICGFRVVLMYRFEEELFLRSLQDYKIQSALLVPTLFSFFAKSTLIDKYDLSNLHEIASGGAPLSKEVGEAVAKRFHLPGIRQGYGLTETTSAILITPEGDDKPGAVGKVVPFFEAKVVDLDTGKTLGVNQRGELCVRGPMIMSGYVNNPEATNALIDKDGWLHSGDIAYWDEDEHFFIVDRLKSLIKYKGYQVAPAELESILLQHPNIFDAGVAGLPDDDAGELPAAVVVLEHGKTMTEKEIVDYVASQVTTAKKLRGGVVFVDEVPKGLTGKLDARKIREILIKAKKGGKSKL
UniProt P05187, residues 23-506: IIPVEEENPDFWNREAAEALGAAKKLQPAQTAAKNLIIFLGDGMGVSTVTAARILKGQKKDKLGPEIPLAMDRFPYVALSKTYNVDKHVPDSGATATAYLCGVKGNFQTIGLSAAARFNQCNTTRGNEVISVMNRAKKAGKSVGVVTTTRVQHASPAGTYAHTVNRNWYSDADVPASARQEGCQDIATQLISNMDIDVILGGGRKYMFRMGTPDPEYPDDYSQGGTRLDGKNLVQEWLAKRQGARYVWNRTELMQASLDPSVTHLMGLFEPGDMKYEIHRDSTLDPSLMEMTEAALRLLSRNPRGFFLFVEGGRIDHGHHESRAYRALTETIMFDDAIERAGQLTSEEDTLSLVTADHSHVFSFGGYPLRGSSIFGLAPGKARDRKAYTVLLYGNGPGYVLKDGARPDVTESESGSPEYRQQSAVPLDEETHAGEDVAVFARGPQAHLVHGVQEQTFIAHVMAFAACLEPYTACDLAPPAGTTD

Legend:
[1] = molecular target: T1, SC3 hydrophobin of Schizophyllum commune (Schizophyllum commune) (UniProt P16933); assay: enzyme on hydrophobin-coated TEFLON sheet, rinsed; o-dianisidine colour reaction stops on removal of the sheet
T1 sequence (looked up): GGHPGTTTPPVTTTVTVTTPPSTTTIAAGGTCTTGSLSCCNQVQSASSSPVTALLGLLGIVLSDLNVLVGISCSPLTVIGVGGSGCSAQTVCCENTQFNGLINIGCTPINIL

[2] = molecular target: T2, SC4 hydrophobin of Schizophyllum commune (Schizophyllum commune) (UniProt P16934); assay: as above
T2 sequence: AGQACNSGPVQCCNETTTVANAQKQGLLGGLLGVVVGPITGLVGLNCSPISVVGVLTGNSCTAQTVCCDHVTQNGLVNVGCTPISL

[3] = molecular target: T1, SC3 hydrophobin of Schizophyllum commune (Schizophyllum commune); assay: enzyme on SC3-coated TEFLON, rinsed; activity by spectrophotometry, constant after removal of the surface
[4] = molecular target: T1, SC3 hydrophobin of Schizophyllum commune (Schizophyllum commune); assay: hydrophobin-coated colloidal TEFLON added to enzyme solution; circular dichroism and centrifugation
[5] = molecular target: T2, SC4 hydrophobin of Schizophyllum commune (Schizophyllum commune); assay: as above
[6] = molecular target: T1, SC3 hydrophobin of Schizophyllum commune (Schizophyllum commune); assay: enzyme on hydrophobin-coated microtiter wells, washed; luminescence with ATP
[7] = molecular target: T2, SC4 hydrophobin of Schizophyllum commune (Schizophyllum commune); assay: as above
[8] = molecular target: T1, SC3 hydrophobin of Schizophyllum commune (Schizophyllum commune); assay: enzyme on hydrophobin-coated microtiter wells, washed; chemiluminescent substrate
[9] = molecular target: T2, SC4 hydrophobin of Schizophyllum commune (Schizophyllum commune); assay: as above

Measured: binding

glucose oxidase from Aspergillus niger (from UniProt P13006 23-605) (enzyme)
binds: [1] | [2] | [3] | [4] | [5]

horseradish peroxidase (from UniProt P00433 31-338) (enzyme)
binds: [1] | [2] | [3]

firefly luciferase (Roche, cat no. 411523) (from UniProt P08659 1-550) (enzyme)
binds: [6] | [7]

human placental alkaline phosphatase (from UniProt P05187 23-506) (enzyme)
binds: [8] | [9]
